No constants are given. Whether binding was seen depends on the method and setting.
Target: E-cadherin EED>AAA (human) (UniProt P12830)
Assay: subcellular fractionation (membrane against cytosol); Colo 205 cells swollen in hypotonic buffer (10 mM Tris pH 7.4, 1 mM MgCl2, 1 mM EDTA), Dounce homogenised, NaCl added to 0.15 M, 100,000 x g for 30 min at 4°C; membrane pellet and cytosolic supernatant blotted for p120 and E-cadherin

Sequences of proteins named here, by UniProt entry; tags and fusion partners are left off. A change or cut given only in a name is not applied to a line headed by its entry. A line that says so, or that is headed by a name, gives the form on record, which may keep a tag or linker.
E-cadherin EED>AAA (P12830, form named): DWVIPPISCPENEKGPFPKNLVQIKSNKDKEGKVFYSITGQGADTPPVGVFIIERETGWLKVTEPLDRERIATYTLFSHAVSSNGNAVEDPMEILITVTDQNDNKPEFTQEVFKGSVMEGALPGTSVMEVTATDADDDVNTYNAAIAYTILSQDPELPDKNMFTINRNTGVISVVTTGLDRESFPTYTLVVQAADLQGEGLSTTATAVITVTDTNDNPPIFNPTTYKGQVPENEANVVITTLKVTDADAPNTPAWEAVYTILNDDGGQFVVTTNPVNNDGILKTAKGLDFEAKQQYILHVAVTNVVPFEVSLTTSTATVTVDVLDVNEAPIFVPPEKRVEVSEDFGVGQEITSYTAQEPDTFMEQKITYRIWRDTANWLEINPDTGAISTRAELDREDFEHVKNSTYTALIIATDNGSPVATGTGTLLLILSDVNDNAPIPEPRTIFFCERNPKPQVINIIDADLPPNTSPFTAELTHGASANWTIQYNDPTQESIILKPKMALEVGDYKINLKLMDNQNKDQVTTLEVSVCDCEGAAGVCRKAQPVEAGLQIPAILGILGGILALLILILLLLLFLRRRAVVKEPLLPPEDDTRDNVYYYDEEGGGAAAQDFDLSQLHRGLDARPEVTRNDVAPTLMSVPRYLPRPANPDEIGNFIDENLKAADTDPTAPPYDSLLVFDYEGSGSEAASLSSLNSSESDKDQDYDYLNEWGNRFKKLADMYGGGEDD

B1: p120-catenin (protein, UniProt O60716 1-968)
chain: MDDSEVESTASILASVKEQEAQFEKLTRALEEERRHVSAQLERVRVSPQDANPLMANGTLTRRHQNGRFVGDADLERQKFSDLKLNGPQDHSHLLYSTIPRMQEPGQIVETYTEEDPEGAMSVVSVETSDDGTTRRTETTVKKVVKTVTTRTVQPVAMGPDGLPVDASSVSNNYIQTLGRDFRKNGNGGPGPYVGQAGTATLPRNFHYPPDGYSRHYEDGYPGGSDNYGSLSRVTRIEERYRPSMEGYRAPSRQDVYGPQPQVRVGGSSVDLHRFHPEPYGLEDDQRSMGYDDLDYGMMSDYGTARRTGTPSDPRRRLRSYEDMIGEEVPSDQYYWAPLAQHERGSLASLDSLRKGGPPPPNWRQPELPEVIAMLGFRLDAVKSNAAAYLQHLCYRNDKVKTDVRKLKGIPVLVGLLDHPKKEVHLGACGALKNISFGRDQDNKIAIKNCDGVPALVRLLRKARDMDLTEVITGTLWNLSSHDSIKMEIVDHALHALTDEVIIPHSGWEREPNEDCKPRHIEWESVLTNTAGCLRNVSSERSEARRKLRECDGLVDALIFIVQAEIGQKDSDSKLVENCVCLLRNLSYQVHREIPQAERYQEAAPNVANNTGPHAASCFGAKKGKDEWFSRGKKPIEDPANDTVDFPKRTSPARGYELLFQPEVVRIYISLLKESKTPAILEASAGAIQNLCAGRWTYGRYIRSALRQEKALSAIADLLTNEHERVVKAASGALRNLAVDARNKELIGKHAIPNLVKNLPGGQQNSSWNFSEDTVISILNTINEVIAENLEAAKKLRETQGIEKLVLINKSGNRSEKEVRAAALVLQTIWGYKELRKPLEKEGWKKSDFQVNLNNASRSQSSHSYDDSTLPLIDRNQKSDKKPDREEIQMSNMGSNTKSLDNNYSTPNERGDHNRTLDRSGDLGDMEPLKGTTPLMQDEGQESLEEELDVLVLDDEGGQVSYPSMQKI
binding: no binding
